Source: PubChem BioAssay AID504834 (National Center for Advancing Translational Sciences (NCATS), 2011)
Out of some 320,000 compounds screened, about 22,000 (6.9%) were called active. Inconclusive means that the source gave no clear call. Such entries were picked first, then a sample of the others. The call rests on the fitted dose curve; in most records, active means well fitted inhibition curve with a large enough effect; inconclusive means small, poorly fitted or top-dose-only effect, or another doubt; inactive means no such curve, though single readings can be large or run the other way. Where the call is inconclusive, the potency comes from a doubtful curve fit.

assay: Primary qHTS for delayed death inhibitors of the malarial parasite plastid, 96 hour incubation; conditions: P. falciparum luciferase reporter growth; series mostly up to 28.7 µM; activity change, negative = inhibition: at the top concentration
Procedure, shortened: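 Erythrocytes infected with luciferase-expressing P. falciparum were dispensed at 2% hematocrit and 0.05% parasitemia (final), then incubated with compounds 96 hours at 37 C in 5% CO2. Luminescence after detection reagent addition reported growth.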
On the % scale 0 is the no-effect control and ±100 the full control effect; potency means the concentration at half of the fitted maximal effect.

With O=C(CSc1nnnn1-c1ccccc1)CSc1nnnn1-c1ccccc1 as the molecule, how does the Potency read?
Its Potency is inconclusive: 9.28 µM [inhibitor, partial curve, poor fit].

With COc1cccc(CCc2nnc(CCC(=O)NCCc3cccc(C)n3)o2)c1 as the molecule, how does the Potency read?
Its Potency is inconclusive: 0.0029 µM [inhibitor, full curve, poor fit].

With O=C(NCC1CCCO1)c1cc2cc(F)ccc2[nH]1 (stereo unspecified) as the molecule, how does the Potency read?
The Potency was inconclusive: 18.5 µM [inhibitor, single point].

For CCn1c(COc2ccc(Cl)cc2)nnc1SCc1ccc(C#N)cc1, which Potency is on record?
Its Potency is inconclusive: 18.5 µM [inhibitor, single point].

Which Potency does the source give for CN(C)C(=O)CSc1nc(-c2ccccc2)nc2c1CCCC2 here?
The Potency was active: 9.28 µM.

With C/C(=N\OCC(=O)N/N=C/c1ccccc1)c1cccs1 as the molecule, how does the Potency read?
Its Potency is inconclusive: 18.5 µM [inhibitor, single point].

With Cc1ccc(O)c(CNc2nccs2)c1 as the molecule, how does the Potency read?
The Potency was inconclusive: 9.28 µM [inhibitor, partial curve, poor fit].

Which Potency does the source give for Cc1cc(C)c(S(=O)(=O)N2CCN(C(=O)c3ccc(-n4cncn4)c([N+](=O)[O-])c3)CC2)c(C)c1 here?
The Potency was inconclusive: 10.4 µM [inhibitor, partial curve].

For CCCNC(=O)COC(=O)/C=C/c1ccc2c(c1)OCO2, which “activity change, negative = inhibition” value is on record?
The value was inactive: 0%.

For N#Cc1nc(-c2ccc(OCc3ccccc3)cc2)oc1NCCN1CCOCC1, which “activity change, negative = inhibition” value is on record?
The value was inactive: -23.1%.

For Cc1cc(C)cc(-n2ncc3c2CCCC3NC(=O)CN2CCCC2=O)c1 (stereo unspecified), which Potency is on record?
Its Potency is inconclusive: 4.15 µM [inhibitor, single point].

With CCC(=O)Nc1ccc(N/C(N)=N/c2nc(C)cc(C)n2)cc1 as the molecule, how does the Potency read?
Its Potency is inconclusive: 18.5 µM [inhibitor, single point].

Which Potency does the source give for Cc1nnsc1C(=O)NC(C)c1ccccc1 (stereo unspecified) here?
The Potency was inconclusive: 13.1 µM [inhibitor, single point].

For CC(=N\NC(=O)c1cc(Br)ccc1O)/C(=N/O)C(=O)Nc1ccccc1, which Potency is on record?
Its Potency is inconclusive: 18.5 µM [inhibitor, partial curve, poor fit].

Which Potency does the source give for Cc1ccc(CS(=O)Cc2ccc(C(=O)N3CCN(c4ccc(F)cc4)CC3)o2)cc1 (stereo unspecified) here?
Its Potency is inconclusive: 18.5 µM [inhibitor, single point].

With Cc1ccc(S(=O)(=O)c2nnn3c2nc(N2CCCCC2)c2ccccc23)cc1 as the molecule, how does the Potency read?
Its Potency is inconclusive: 1.47 µM [inhibitor, partial curve].

With Cc1cc([N+](=O)[O-])cc2c1NC(=O)C2(O)N1CCCC(C)C1 (stereo unspecified) as the molecule, how does the “activity change, negative = inhibition” value read?
Its value is inactive: 177%.

With O=C(COC(=O)CCS(=O)(=O)c1ccccc1)Nc1cc(S(=O)(=O)N2CCCCC2)ccc1Cl as the molecule, how does the Potency read?
Its Potency is inconclusive: 2.08 µM [inhibitor, partial curve, poor fit].

Which Potency does the source give for CC(Sc1nc2ccccc2c(=O)n1C)C(=O)N(C)C1CCCCC1 (stereo unspecified) here?
The Potency was inconclusive: 1.85 µM [inhibitor, full curve].

With O=C(NC1CC2CCCC(C1)N2Cc1ccco1)NC12CC3CC(CC(C3)C1)C2 (stereo unspecified) as the molecule, how does the Potency read?
The Potency was inconclusive: 1.47 µM [inhibitor, full curve, poor fit].

For Cc1cccc(NC(=O)CSCC(=O)Nc2ccccc2N2CCCCC2)c1, which Potency is on record?
The Potency was inconclusive: 18.5 µM [inhibitor, single point].

Which “activity change, negative = inhibition” value does the source give for CCc1ccc2[nH]c(=O)c(CN(Cc3ccc(F)cc3)C(c3nnnn3CCN3CCOCC3)C(C)C)cc2c1 (stereo unspecified) here?
Its value is inactive: 75%.

Which “activity change, negative = inhibition” value does the source give for Nn1c(SCc2ccccc2)nnc1-c1ccccn1 here?
The value was inactive: 48%.

Which Potency does the source give for COc1ccc(CCNC(=O)c2ccc(Cl)cc2Cl)cc1OC here?
The Potency was inconclusive: 9.28 µM [inhibitor, single point].

For CCOc1ccccc1CN1C(=O)c2ccccc2C1C(=O)NC(C)CC (stereo unspecified), which Potency is on record?
Its Potency is active: 8.28 µM.

For CC(C)CCn1nnnc1CN1CCN(C(=O)c2ccco2)CC1, which Potency is on record?
Its Potency is inconclusive: 8.28 µM [inhibitor, partial curve, poor fit].

With O=C(Cn1nc(-c2ccc(Cl)cc2)ccc1=O)NCCCN1CCN(Cc2ccccc2)CC1 as the molecule, how does the Potency read?
The Potency was inconclusive: 11.7 µM [inhibitor, single point].

With O=C(NCCN1CCCC1)c1ccc(Cl)cc1 as the molecule, how does the “activity change, negative = inhibition” value read?
The value was inactive: 110%.

For CC(=O)Nc1ccc(NC(=O)CCCn2cnc3ccccc3c2=O)cc1, which “activity change, negative = inhibition” value is on record?
Its value is inactive: 16.7%.

For Cc1cc(C)nc(Nc2ccccc2Br)n1, which Potency is on record?
Its Potency is inconclusive: 10.4 µM [inhibitor, single point].

Which activity change, negative = inhibition does the source give for Cc1nc2ccccc2c(=O)n1NC(=O)C1CC1C (stereo unspecified) here?
The activity change, negative = inhibition was inactive: 18.2% [at 5.75 µM].

For Cn1ccsc1=NC(=O)c1ccc(S(=O)(=O)C(F)F)cc1, which “activity change, negative = inhibition” value is on record?
Its value is inactive: 15.4%.

Which “activity change, negative = inhibition” value does the source give for Cc1ccc(O)c(-c2cc(-c3ccccc3C)[nH]n2)c1 here?
Its value is inactive: 12.3%.

Which Potency does the source give for Cc1cc(Cl)ccc1NC(=O)CN1C(=O)CSc2ccc(S(=O)(=O)N3CCOCC3)cc21 here?
Its Potency is inconclusive: 8.28 µM [inhibitor, partial curve, poor fit].

For N=c1n(Cc2ccccc2)c2ccccc2n1CC(O)c1ccco1 (stereo unspecified), which Potency is on record?
Its Potency is inconclusive: 18.5 µM [inhibitor, single point].

Which Potency does the source give for COc1cccc(CN2CC(C(=O)N(C)Cc3ccnc4ccccc34)CCC2=O)c1 (stereo unspecified) here?
Its Potency is inconclusive: 13.1 µM [inhibitor, single point].

Which Potency does the source give for CCC(=O)Nc1nc2ccc3nc(C)sc3c2s1 here?
The Potency was inconclusive: 6.57 µM [inhibitor, partial curve].

For COc1cc(-c2ccccc2)[nH]c(=S)n1, which Potency is on record?
The Potency was active: 7.38 µM.

With CCNC(=O)COC(=O)/C=C/c1cccc(F)c1 as the molecule, how does the “activity change, negative = inhibition” value read?
Its value is inactive: 9.28%.

For O=C1CC(C(F)(F)F)=NN1, which Potency is on record?
Its Potency is inconclusive: 0.0029 µM [inhibitor, full curve, poor fit].

Which Potency does the source give for COc1ccc(CNC(=S)Nc2ccc(-c3ccccc3)cc2)cc1 here?
Its Potency is inconclusive: 18.5 µM [inhibitor, single point].

Which “activity change, negative = inhibition” value does the source give for CN1CCN(C=Nc2nc3ccccc3nc2N2CCCC2)CC1 here?
Its value is inactive: 7.14%.

With Cc1onc(-c2ccccc2)c1C(=O)NC(=S)NNC(=O)c1cc(-c2ccc(F)cc2)n[nH]1 as the molecule, how does the Potency read?
Its Potency is inconclusive: 20.8 µM [inhibitor, partial curve, poor fit].

For COc1ccccc1C1NC(=O)c2ccccc2O1 (stereo unspecified), which Potency is on record?
Its Potency is inconclusive: 18.5 µM [inhibitor, single point].

Which “activity change, negative = inhibition” value does the source give for CCOC(=O)c1c(NC(=O)CC2Nc3cc(C)c(C)cc3NC2=O)sc(C)c1C (stereo unspecified) here?
Its value is inactive: 14.7%.

For CCN(CC)CCCN1C(=O)C(=O)/C(=C(/O)c2ccc(C)cc2)C1c1ccccn1 (stereo unspecified), which Potency is on record?
Its Potency is active: 3.29 µM.

For O=C(/C=C/c1ccc(F)cc1)N1CCc2ccccc2C1, which “activity change, negative = inhibition” value is on record?
The value was inactive: 37.8%.

For O=C1/C(=C\c2ccc(Br)o2)Cc2ccccc21, which “activity change, negative = inhibition” value is on record?
Its value is inactive: 21.9%.

For CCOC(=O)C1CCCN(Cc2cccc(Oc3ccccc3)c2)C1 (stereo unspecified), which Potency is on record?
Its Potency is inconclusive: 18.5 µM [inhibitor, single point].

For N#CCC(CNc1ncc(C(F)(F)F)cc1Cl)OC(=O)c1ccc(Cl)cc1 (stereo unspecified), which Potency is on record?
Its Potency is inconclusive: 18.5 µM [inhibitor, single point].

For Cc1ccc2nc(NC(=O)CCn3cccc3)sc2c1, which Potency is on record?
Its Potency is inconclusive: 0.294 µM [inhibitor, full curve, poor fit].

With CCc1ccc(OCC(=O)Nc2ccc(N3CCN(S(C)(=O)=O)CC3)cc2)cc1 as the molecule, how does the Potency read?
The Potency was inconclusive: 18.5 µM [inhibitor, single point].

Which Potency does the source give for COc1ccc(-c2nc(SC(C)C(=O)c3c(N)n(C)c(=O)n(C)c3=O)n[nH]2)cc1 (stereo unspecified) here?
The Potency was inconclusive: 18.5 µM [inhibitor, single point].

Which Potency does the source give for CCC(=O)Oc1ccc(C(CC)C(CC)c2ccc(OC(=O)CC)cc2)cc1 (stereo unspecified) here?
The Potency was inconclusive: 18.5 µM [inhibitor, single point].

For O=C(NC(C(=O)c1ccccc1)n1cnccc1=O)c1ccccc1 (stereo unspecified), which “activity change, negative = inhibition” value is on record?
Its value is inactive: 163%.

Which Potency does the source give for CCC(C(=O)O/N=C(\N)c1ccc(Cl)cc1)c1ccccc1 (stereo unspecified) here?
Its Potency is inconclusive: 18.5 µM [inhibitor, single point].

Which Potency does the source give for O=S(=O)(Cc1cc(NCc2ccccc2)nc(-c2ccncc2)n1)c1ccccc1 here?
The Potency was inconclusive: 1.17 µM [inhibitor, full curve, poor fit].

Which Potency does the source give for O=C(N/N=C/c1ccc(OCc2ccccc2)cc1)c1cccs1 here?
The Potency was inconclusive: 0.586 µM [inhibitor, partial curve, poor fit].

Which “activity change, negative = inhibition” value does the source give for O=C(Nc1ccccc1N1CCCCC1)c1ccc2nccnc2c1 here?
The value was inactive: 2.02%.

For COc1ccc(-c2cc(C3CCN(c4ncccc4[N+](=O)[O-])CC3)[nH]n2)cc1, which Potency is on record?
Its Potency is inconclusive: 18.5 µM [inhibitor, single point].

With Cc1ccc(S(=O)(=O)N(Cc2ccccc2)c2ccccn2)cc1[N+](=O)[O-] as the molecule, how does the “activity change, negative = inhibition” value read?
Its value is inactive: -14.9%.

Which “activity change, negative = inhibition” value does the source give for O=C(O)c1ccc2c(c1)C(=O)N([C@H](Cc1ccc(-c3ccccc3)cc1)C(=O)O)C2=O here?
The value was inactive: -0.145%.

For O=C(NCCc1ccccc1)C1CCC(CNc2nc(=S)[nH]c3ccccc23)CC1 (stereo unspecified), which Potency is on record?
Its Potency is inconclusive: 11.7 µM [inhibitor, partial curve, poor fit].

For O=C(O)c1cc(NS(=O)(=O)c2ccc3ccccc3c2)ccc1O, which “activity change, negative = inhibition” value is on record?
Its value is inactive: -22.7%.

For CCOc1c(C)cnc2c1c(=O)n(Cc1ccccc1Cl)c(=O)n2C, which “activity change, negative = inhibition” value is on record?
The value was inactive: -3.97%.

With CCCCSc1nnc2c(n1)[nH]c1ccccc12 as the molecule, how does the “activity change, negative = inhibition” value read?
The value was inactive: 5.04%.

With COc1cc(/C=C2\C(=N)N3N=C(S(=O)(=O)CC(C)C)SC3=NC2=O)ccc1OC(=O)c1ccco1 as the molecule, how does the Potency read?
The Potency was inconclusive: 18.5 µM [inhibitor, single point].

For CCn1c(C)nc2cc(C(=O)NNC(=S)Nc3ccc(OC)cc3)ccc21, which Potency is on record?
The Potency was inconclusive: 0.586 µM [inhibitor, partial curve].

For Cc1cccc(C)c1OCCN1CCOCC1, which Potency is on record?
Its Potency is inconclusive: 13.1 µM [inhibitor, single point].

Which “activity change, negative = inhibition” value does the source give for COc1ccc(CCNC(=O)C2CCN(Cc3nc(-c4ccccc4C)oc3C)CC2)cc1OC here?
Its value is inactive: 15%.

Which Potency does the source give for N#CCCSc1ccccc1NC(=O)c1cc(=O)c2ccccc2o1 here?
Its Potency is inconclusive: 10.4 µM [inhibitor, single point].
